Source: publication PMC3765211
Results are given in words; binding and its absence hold for the method and conditions named. Binding seen in cells or lysates may run through a third protein. Some binding calls cover weakened binding; strength is not graded here.

Chains of the proteins cited; added tags and fusions are not shown.
UniProt Q8WUY3: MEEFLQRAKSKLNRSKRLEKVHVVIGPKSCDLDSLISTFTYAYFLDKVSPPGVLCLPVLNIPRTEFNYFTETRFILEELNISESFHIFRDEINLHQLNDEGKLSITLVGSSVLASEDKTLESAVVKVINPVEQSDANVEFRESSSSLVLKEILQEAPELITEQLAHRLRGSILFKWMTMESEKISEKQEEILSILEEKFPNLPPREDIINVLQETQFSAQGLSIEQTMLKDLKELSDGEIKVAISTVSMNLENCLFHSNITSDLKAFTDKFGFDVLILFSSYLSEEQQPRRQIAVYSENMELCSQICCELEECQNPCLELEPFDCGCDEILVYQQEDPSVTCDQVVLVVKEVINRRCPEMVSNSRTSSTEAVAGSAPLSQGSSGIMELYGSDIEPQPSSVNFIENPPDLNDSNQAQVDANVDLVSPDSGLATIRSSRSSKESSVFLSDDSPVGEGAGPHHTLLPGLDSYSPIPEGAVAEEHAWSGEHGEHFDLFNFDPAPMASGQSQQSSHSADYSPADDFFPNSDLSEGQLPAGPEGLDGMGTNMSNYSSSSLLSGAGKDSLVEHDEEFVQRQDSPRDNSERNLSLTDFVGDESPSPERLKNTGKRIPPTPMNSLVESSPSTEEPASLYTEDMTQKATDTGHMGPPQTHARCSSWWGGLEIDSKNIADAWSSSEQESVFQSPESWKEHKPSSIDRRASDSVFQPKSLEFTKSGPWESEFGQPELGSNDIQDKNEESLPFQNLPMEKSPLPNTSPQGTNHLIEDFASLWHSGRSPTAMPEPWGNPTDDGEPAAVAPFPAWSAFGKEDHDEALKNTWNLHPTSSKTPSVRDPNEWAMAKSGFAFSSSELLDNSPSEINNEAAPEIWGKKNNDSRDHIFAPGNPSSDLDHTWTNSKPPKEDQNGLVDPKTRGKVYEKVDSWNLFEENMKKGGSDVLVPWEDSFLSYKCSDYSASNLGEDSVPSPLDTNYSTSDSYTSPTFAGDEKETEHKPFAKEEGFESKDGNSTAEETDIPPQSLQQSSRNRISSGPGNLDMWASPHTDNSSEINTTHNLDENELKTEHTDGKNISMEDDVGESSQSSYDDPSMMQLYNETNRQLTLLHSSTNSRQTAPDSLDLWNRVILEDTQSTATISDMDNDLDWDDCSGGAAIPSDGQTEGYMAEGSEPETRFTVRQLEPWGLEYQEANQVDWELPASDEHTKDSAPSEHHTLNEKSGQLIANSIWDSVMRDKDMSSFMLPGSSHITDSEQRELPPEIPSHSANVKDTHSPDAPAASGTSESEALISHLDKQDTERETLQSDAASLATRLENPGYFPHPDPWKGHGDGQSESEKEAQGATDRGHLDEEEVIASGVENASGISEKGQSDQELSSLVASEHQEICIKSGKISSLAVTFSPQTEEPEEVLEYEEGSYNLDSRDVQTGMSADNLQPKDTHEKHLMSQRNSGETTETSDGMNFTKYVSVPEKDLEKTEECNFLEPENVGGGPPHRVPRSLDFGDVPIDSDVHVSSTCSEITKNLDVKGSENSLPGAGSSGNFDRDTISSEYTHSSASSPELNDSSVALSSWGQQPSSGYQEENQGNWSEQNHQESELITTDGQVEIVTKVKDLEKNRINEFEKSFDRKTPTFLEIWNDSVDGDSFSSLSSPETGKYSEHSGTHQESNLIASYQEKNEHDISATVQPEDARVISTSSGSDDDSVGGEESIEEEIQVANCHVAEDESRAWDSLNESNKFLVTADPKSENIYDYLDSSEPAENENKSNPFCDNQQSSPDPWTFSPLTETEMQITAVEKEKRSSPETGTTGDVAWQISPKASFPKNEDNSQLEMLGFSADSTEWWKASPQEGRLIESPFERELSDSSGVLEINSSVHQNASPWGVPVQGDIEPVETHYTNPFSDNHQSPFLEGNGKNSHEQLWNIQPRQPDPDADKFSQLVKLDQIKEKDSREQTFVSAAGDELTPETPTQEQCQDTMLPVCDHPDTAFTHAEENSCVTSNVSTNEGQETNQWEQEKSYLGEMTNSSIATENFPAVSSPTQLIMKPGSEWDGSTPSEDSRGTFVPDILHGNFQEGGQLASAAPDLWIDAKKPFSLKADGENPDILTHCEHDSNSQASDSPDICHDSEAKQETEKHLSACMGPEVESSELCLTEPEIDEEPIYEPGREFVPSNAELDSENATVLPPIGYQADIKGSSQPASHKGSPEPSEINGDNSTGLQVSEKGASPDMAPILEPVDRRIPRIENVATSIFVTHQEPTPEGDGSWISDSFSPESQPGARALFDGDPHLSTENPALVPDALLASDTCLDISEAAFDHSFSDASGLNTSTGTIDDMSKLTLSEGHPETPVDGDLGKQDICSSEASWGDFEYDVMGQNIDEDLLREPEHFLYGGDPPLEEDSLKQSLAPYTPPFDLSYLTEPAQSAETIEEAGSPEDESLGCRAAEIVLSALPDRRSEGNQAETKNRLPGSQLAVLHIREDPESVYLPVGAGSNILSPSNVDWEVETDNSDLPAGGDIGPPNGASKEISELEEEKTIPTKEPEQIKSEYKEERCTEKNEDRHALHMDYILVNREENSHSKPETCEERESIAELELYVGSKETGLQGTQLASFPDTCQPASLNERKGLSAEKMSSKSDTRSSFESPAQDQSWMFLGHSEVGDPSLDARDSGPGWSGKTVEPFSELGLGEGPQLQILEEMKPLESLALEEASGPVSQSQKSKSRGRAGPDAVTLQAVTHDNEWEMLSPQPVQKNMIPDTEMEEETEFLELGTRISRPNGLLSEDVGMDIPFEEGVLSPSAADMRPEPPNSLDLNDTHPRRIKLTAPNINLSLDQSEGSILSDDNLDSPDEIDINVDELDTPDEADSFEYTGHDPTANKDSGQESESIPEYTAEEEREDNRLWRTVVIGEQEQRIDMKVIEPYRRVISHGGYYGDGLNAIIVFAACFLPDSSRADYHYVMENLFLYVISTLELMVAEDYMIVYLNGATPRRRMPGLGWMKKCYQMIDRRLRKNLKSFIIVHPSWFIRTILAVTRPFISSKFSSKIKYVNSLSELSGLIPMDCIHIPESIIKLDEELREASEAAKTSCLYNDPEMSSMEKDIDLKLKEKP
UniProt P63010: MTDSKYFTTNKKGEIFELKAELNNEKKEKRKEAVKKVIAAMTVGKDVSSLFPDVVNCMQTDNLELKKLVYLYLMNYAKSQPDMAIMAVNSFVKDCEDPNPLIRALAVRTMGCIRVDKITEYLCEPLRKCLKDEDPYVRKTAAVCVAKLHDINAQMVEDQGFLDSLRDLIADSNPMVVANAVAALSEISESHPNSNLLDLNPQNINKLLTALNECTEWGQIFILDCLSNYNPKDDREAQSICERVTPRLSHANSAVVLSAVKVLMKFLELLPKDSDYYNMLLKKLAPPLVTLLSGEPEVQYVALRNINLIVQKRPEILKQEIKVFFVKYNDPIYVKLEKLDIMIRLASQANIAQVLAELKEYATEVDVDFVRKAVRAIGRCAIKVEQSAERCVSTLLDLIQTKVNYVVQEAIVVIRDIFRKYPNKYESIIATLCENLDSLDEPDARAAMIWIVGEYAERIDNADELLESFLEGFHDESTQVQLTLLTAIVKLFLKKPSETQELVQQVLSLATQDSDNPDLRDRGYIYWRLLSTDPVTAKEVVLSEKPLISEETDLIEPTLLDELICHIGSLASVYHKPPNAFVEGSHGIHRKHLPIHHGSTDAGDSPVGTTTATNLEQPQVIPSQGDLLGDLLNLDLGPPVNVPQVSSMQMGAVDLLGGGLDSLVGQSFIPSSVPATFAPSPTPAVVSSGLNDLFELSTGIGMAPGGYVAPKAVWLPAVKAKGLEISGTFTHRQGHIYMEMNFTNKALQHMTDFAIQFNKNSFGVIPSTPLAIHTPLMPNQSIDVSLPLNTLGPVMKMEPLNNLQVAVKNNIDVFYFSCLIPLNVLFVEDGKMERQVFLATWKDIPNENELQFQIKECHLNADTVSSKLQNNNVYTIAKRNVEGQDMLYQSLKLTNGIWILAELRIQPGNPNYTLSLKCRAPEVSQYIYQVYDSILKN

Biological target: BMCC1-1 protein (340 kDa BMCC1) (human (endogenous in LNCaP)) (UniProt Q8WUY3)
Experiment: co-IP; endogenous BMCC1 immunoprecipitated with sheep anti-BMCC1 Ab-4 from LNCaP total lysate overnight, protein G agarose; blots for β-adaptin and AP2A1/2; also from cells transfected with control siRNA or BMCC1 siRNA

- binding: binds
Substance: AP-2B1/β-adaptin (from UniProt P63010 1-937)
